From patent publication US20120141501A1
No constants are given. Whether binding was seen depends on the method and setting. Some entries that bind do so weakly or less than the wild type.

Sequences of proteins named here, by UniProt entry; tags and fusion partners are left off. A change or cut given only in a name is not applied to a line headed by its entry.
UniProt O14944: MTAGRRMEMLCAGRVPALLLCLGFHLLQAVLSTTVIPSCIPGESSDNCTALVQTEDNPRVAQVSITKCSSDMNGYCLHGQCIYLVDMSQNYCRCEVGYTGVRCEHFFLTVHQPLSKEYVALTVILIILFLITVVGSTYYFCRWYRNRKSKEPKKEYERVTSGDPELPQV
UniProt P01135: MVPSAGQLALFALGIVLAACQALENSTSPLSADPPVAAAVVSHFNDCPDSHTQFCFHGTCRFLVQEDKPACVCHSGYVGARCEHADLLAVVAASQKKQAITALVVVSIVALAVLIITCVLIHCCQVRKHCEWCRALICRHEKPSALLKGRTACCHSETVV

Assays:
[1] = biological target: human Epiregulin (EREG) protein (human) (UniProt O14944); experiment: ELISA on immobilized EREG (FIG. 6a)
[2] = biological target: mature TGFα (R&D Systems, 239-A) (human) (UniProt P01135); experiment: ELISA on immobilized TGFα, COS-7 supernatant
[3] = biological target: human Epiregulin (EREG) protein (human) (UniProt O14944); experiment: ELISA on immobilized EREG, COS-7 supernatant
[4] = biological target: mature TGFα (R&D Systems, 239-A) (human) (UniProt P01135); experiment: ELISA on immobilized TGFα (FIG. 6b)

Measured: binding

B1: EP19 recombinant chimeric antibody (mouse EP19 VH/VL with human IgG1 constant region) (antibody, V domains shown)
VH: EVQLQQSGPELEKPGASVKISCKASGYSFTGYNMNWVKQSNGKSLEWIGNIDPYYGAASYNQKFKGKATLTVDKSSSTAYMQLKSLTSEDSAVYYCARSQLPYWYFDVWGAGTTVTVSS
VL: DIVMTQSPSSLTVTAGEKVTMSCKSSQSLLNSGNQKNYLTWYQQKPGQPPKLLIYWASTRESGVPDRFTGSGSGTDFTLTISSVQAEDLAVYYCQNDYSYPYTFGGGTKLEIKR
binds: [1] | [2] | [3] | [4]
